This assay concerns the target T1, recombinant human IL4I1 (interleukin four-induced gene 1), conjugated to TriCEPS (human) (UniProt Q96RQ9).
T1 sequence (chain, conjugated to LRC-TriCEPS-biotin (LRC-TriCEPS V.3)): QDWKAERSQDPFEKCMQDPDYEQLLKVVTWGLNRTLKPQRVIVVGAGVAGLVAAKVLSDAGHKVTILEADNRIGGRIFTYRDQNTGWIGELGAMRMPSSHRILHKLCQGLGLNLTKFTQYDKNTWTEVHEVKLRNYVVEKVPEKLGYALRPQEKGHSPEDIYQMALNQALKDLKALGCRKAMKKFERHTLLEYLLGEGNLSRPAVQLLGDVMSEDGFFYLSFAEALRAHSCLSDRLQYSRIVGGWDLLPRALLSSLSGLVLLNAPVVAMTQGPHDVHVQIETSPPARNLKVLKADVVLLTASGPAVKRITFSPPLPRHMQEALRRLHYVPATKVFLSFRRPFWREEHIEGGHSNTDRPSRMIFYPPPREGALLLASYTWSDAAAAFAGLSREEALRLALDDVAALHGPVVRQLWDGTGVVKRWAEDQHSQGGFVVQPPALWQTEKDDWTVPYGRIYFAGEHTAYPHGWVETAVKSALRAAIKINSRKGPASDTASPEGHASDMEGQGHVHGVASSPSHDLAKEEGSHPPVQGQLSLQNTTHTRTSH
The assay is described as follows: affinity purification with mass spectrometry; ligand receptor capture (LRC-TriCEPS): Jurkat cells oxidised with 1.5 mM sodium metaperiodate at 4°C, incubated 90 min with TriCEPS-rhIL4I1 (control TriCEPS-transferrin), cross-linked to the cell surface, lysed, LC-MS; only the target purified.

Protein sequences, listed by entry. Tags and fused reporters are not part of them.
UniProt Q9BYE2: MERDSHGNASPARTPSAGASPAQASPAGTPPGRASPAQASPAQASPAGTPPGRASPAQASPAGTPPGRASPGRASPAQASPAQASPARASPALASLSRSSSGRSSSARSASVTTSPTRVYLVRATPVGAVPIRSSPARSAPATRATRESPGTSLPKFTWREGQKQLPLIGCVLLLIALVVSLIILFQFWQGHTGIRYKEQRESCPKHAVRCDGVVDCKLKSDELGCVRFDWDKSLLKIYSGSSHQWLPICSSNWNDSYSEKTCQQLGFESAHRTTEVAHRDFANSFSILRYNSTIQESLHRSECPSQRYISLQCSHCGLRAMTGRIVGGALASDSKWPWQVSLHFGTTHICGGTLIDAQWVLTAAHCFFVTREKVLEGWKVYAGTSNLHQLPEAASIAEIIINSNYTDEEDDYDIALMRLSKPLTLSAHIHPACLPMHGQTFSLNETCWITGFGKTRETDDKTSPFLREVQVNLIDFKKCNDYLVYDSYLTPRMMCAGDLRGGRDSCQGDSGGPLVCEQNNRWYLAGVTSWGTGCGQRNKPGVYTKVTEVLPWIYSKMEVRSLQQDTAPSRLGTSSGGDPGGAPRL

Results are given in words; binding and its absence hold for the method and conditions named. In cells and extracts the contact can be indirect. A yes stands for co-enrichment or nearness to the bait. Other partners may have been found.

For “TMPRSS13 endogenous on Jurkat cells (from UniProt Q9BYE2 1-586) (enzyme)”, the binding result was “binds”.

Source of the values: publication PMC9483092.
